Experimental data from the supplement of paper PMC10849652.
The other results are listed elsewhere or left out.

The chains behind the UniProt entries cited, without tags or fusion partners. Where a name states a change or a piece, a line headed by the entry shows the natural chain unless it says otherwise.
UniProt Q12905: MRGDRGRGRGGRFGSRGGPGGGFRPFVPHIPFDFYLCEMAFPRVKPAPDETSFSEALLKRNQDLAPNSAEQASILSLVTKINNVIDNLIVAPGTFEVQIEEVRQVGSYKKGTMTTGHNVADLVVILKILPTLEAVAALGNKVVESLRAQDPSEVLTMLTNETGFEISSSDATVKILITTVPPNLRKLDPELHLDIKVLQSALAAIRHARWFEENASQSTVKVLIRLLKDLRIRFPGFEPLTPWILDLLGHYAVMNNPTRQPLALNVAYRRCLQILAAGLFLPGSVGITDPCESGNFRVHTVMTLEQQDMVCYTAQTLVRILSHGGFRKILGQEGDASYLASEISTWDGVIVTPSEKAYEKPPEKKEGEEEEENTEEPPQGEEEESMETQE
UniProt Q92835: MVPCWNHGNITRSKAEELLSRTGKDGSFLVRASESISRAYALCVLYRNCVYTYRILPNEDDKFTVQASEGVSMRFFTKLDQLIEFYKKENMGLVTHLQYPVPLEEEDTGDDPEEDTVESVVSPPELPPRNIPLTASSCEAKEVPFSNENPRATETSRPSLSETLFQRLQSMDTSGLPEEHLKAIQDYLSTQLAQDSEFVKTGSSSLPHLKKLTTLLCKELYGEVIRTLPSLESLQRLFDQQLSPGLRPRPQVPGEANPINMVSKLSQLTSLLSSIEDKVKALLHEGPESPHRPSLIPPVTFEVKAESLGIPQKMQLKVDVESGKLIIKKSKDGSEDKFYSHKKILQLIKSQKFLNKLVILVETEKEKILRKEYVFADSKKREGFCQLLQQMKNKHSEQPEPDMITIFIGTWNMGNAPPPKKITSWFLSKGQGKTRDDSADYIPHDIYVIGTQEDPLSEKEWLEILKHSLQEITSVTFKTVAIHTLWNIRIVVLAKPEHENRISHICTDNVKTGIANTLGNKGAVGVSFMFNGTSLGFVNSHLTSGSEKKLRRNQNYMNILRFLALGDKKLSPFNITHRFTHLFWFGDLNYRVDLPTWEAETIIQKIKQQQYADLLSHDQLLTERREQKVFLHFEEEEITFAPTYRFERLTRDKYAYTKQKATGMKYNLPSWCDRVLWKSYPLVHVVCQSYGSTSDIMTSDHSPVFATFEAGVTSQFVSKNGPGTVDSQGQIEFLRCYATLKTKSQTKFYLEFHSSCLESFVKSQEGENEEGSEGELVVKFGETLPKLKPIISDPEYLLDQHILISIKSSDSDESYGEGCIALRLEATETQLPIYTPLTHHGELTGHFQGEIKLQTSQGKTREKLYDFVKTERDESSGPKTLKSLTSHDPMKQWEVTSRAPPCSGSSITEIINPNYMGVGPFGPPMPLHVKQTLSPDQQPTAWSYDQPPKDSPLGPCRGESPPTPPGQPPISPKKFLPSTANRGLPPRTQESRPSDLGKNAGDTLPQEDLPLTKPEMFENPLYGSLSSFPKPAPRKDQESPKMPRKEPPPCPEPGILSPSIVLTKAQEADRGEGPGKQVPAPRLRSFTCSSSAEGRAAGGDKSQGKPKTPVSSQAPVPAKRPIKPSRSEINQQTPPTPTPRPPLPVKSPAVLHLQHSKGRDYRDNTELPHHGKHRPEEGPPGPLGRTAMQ
UniProt O75874, whole entry, looked up: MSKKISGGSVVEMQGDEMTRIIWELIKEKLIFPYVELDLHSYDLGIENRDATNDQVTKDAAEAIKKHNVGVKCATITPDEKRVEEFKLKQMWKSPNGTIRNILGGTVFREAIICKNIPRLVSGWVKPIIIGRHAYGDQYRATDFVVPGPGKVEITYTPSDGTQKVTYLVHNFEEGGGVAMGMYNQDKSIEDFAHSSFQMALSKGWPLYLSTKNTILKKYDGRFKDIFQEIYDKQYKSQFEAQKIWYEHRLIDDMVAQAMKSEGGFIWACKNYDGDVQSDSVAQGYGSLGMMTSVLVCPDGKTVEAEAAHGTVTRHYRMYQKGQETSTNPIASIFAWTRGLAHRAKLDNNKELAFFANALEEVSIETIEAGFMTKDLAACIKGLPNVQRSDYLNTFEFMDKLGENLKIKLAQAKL
UniProt Q9NX62: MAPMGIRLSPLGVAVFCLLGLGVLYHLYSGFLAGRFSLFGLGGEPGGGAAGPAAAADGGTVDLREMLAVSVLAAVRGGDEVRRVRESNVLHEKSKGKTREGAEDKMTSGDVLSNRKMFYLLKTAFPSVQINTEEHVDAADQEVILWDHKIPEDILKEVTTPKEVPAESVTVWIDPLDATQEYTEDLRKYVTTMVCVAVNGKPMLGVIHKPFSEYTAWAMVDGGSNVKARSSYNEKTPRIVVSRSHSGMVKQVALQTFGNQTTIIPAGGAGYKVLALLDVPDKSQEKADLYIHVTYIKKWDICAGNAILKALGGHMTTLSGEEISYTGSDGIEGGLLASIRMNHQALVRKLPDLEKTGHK
UniProt Q9NQC8: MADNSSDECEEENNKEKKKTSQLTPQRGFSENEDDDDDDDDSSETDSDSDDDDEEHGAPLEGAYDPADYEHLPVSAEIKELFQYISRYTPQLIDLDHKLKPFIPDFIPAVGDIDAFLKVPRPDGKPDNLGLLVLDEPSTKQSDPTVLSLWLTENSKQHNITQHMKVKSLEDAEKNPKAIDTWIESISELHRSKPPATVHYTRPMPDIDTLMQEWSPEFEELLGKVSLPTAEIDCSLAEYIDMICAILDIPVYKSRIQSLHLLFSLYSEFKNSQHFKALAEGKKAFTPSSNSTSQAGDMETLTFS
UniProt Q13123, whole entry, looked up: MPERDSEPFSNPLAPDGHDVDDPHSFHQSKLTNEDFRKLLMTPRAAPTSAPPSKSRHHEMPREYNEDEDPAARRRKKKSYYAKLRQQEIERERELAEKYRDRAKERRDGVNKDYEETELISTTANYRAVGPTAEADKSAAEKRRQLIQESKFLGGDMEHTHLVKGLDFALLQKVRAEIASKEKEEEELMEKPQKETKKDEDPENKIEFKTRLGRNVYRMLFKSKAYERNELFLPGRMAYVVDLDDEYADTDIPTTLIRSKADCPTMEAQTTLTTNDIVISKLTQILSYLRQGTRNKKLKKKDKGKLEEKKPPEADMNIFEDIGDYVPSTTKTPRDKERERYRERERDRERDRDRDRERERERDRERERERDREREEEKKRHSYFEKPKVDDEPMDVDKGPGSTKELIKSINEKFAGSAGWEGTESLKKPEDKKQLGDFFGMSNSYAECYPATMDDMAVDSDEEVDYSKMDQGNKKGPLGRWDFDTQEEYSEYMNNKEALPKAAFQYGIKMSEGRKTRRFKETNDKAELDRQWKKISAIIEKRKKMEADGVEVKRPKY
UniProt Q16666: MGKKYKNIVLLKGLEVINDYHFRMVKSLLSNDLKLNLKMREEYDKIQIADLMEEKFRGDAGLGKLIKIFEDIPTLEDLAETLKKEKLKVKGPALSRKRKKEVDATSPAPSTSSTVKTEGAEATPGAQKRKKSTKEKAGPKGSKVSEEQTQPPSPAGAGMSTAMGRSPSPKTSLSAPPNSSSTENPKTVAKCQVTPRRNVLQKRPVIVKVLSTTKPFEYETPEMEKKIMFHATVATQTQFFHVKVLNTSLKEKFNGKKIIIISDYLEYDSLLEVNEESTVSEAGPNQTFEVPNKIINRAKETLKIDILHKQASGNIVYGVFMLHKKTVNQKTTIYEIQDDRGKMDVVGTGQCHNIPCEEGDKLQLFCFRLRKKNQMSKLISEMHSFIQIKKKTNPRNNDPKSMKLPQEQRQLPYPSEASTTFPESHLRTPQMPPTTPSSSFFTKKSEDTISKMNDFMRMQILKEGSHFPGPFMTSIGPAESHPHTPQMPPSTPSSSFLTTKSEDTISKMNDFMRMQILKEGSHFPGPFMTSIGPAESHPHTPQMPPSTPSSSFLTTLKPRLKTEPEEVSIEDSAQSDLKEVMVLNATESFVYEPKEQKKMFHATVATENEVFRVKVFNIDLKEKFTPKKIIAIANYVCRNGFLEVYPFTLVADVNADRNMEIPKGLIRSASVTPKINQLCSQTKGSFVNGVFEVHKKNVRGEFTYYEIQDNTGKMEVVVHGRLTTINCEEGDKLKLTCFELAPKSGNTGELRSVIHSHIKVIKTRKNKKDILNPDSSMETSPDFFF
UniProt Q9HBG6: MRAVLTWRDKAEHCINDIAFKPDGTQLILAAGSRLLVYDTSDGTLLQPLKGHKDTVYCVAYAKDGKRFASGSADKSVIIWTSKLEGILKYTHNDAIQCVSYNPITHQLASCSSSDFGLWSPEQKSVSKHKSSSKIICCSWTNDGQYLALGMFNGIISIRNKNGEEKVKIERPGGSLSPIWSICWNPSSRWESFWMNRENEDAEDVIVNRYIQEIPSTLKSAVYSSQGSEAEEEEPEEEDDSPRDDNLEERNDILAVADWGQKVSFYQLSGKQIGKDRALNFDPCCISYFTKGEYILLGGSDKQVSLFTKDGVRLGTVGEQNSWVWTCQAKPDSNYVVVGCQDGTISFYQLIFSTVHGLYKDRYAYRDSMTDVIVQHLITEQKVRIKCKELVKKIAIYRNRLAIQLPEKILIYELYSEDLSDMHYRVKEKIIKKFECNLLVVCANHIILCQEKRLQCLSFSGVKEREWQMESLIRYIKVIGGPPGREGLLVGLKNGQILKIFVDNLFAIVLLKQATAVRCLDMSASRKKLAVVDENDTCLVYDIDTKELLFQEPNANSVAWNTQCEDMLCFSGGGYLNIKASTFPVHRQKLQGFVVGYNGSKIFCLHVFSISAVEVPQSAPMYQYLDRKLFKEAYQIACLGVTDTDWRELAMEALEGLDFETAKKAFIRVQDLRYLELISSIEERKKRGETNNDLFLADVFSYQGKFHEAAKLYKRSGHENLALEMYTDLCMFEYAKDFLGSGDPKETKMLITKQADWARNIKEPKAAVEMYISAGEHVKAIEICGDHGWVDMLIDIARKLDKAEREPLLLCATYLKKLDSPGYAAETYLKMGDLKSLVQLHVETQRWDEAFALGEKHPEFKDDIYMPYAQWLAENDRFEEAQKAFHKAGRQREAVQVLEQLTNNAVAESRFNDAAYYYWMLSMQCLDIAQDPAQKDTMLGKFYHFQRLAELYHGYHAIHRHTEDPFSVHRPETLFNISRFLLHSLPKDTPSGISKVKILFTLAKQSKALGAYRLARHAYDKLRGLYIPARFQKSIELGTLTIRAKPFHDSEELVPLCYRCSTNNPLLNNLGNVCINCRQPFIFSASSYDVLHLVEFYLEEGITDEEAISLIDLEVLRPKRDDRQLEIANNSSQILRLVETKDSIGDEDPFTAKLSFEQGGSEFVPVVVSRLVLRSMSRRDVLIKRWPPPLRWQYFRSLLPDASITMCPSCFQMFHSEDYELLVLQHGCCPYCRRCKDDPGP
UniProt Q13907: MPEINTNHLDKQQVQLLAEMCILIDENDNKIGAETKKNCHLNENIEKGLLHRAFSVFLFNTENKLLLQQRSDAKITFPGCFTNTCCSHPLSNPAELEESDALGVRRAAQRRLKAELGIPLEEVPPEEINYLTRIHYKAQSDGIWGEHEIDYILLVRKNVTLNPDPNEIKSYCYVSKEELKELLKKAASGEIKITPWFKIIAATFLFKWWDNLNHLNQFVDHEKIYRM
UniProt P10809, whole entry, looked up: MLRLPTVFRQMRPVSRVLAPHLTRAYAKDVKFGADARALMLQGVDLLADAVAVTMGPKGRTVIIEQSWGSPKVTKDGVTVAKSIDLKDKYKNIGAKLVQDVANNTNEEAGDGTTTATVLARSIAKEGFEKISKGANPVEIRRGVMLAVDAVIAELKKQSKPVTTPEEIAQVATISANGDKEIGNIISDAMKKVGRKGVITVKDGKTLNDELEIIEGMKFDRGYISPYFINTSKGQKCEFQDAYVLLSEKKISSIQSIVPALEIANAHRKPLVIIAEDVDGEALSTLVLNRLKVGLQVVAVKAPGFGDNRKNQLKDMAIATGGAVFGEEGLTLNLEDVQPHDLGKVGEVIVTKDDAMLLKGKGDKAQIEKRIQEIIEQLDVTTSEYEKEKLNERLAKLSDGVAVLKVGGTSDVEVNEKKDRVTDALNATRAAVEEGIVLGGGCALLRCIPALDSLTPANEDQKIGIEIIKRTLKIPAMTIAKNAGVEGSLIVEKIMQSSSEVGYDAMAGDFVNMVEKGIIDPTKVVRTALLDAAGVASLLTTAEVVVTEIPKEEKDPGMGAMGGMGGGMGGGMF

Legend:
Test in all cases: log2 fold change, soluble protein after heating vs DMSO (PISA); higher = thermal stabilisation; K562 lysate, 10 uM; active = over 0.2 and 3.5 SD of the protein, either way, in both replicates (recomputed)
[1] = compound: NCC(=O)Nc1ccc(-n2nc(C(F)(F)F)cc2-c2ccc3c(ccc4ccccc43)c2)cc1
Summary of the method: (§1)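 A 30 min treatment with 10 μM compound was applied to crude K562 extract at 1 mg/mL protein in PBS pH 7.4 with 1 mM MgCl2. Heating for 3 min spanned 48°C-58°C, after which aliquots were pooled, adjusted to 0.5% NP-40 at 4°C and spun at 21,000xg for 90 min. TMTpro 16plex LC-MS/MS of the supernatant, with channel sums equalised, gave values recorded as log-two fold change in thermal stability against solvent controls, from duplicates.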

[2] = compound: O=C1NC(=O)C(c2cnc3ccccn23)=C1c1cn2c3c(cc(F)cc13)CN(C(=O)N1CCCCC1)CC2
Summary of the method: as §1

entospletinib = compound: c1cn2cc(-c3ccc4cn[nH]c4c3)nc(Nc3ccc(N4CCOCC4)cc3)c2n1 [entospletinib]
Summary of the method: as §1

vorinostat = compound: O=C(CCCCCCC(=O)Nc1ccccc1)NO [vorinostat]
Summary of the method: as §1

silmitasertib = compound: O=C(O)c1ccc2c(c1)nc(Nc1cccc(Cl)c1)c1ccncc12 [silmitasertib]
Summary of the method: as §1

Measured: log2 fold change

HTD2 (UniProt P86397)
inactive: [1] 0.02 | [2] 0.012 | entospletinib 0.038

ILF2 (UniProt Q12905)
inactive: [1] 0.007 | vorinostat 0.08 | silmitasertib -0.011 | [2] 0.028 | entospletinib -0.003

INPP5D (UniProt Q92835)
inactive: vorinostat -0.486 | silmitasertib -0.195

IDH1 (UniProt O75874)
inactive: [1] 0.032 | vorinostat -0.051 | silmitasertib 0.017 | [2] -0.009 | entospletinib 0.023

IMPAD1 (UniProt Q9NX62)
inactive: [1] -0.017 | vorinostat 0.1 | silmitasertib -0.022 | [2] 0.005 | entospletinib 0.036

IFT46 isoform 2 (UniProt Q9NQC8)
inactive: [1] 0.068 | [2] 0.103 | entospletinib 0.002

Pulled one by one from above, two records:
IDH1 (UniProt O75874)
inactive: [1] 0.032 | vorinostat -0.051 | silmitasertib 0.017 | [2] -0.009 | entospletinib 0.023

ILF2 (UniProt Q12905)
inactive: [1] 0.007 | vorinostat 0.08 | silmitasertib -0.011 | [2] 0.028 | entospletinib -0.003

Further records:

IK (UniProt Q13123)
inactive: [1] 0.03 | vorinostat -0.171 | silmitasertib -0.019 | [2] -0.038 | entospletinib 0.009

IFI16 (UniProt Q16666)
inactive: vorinostat -0.095 | silmitasertib 0.07

IFT122 isoform 5 (UniProt Q9HBG6)
inactive: [1] -0.191 | [2] -0.269

IDI1 (UniProt Q13907)
inactive: [1] -0.008 | vorinostat 0.101 | silmitasertib -0.001 | [2] -0.004 | entospletinib -0.006

HSPD1 (UniProt P10809)
inactive: [1] 0.007 | vorinostat 0.129 | silmitasertib 0 | [2] 0.012 | entospletinib -0.005
